{
  "source": "PubChem BioAssay AID588497",
  "about": "(NMMLSC, 2011)",
  "note": "Hit rate of the full screen: of about 360,000 compounds, about 780 (0.22%) were called active. Inconclusive means that the source gave no clear call. Such entries were picked first, then a sample of the others. No stated cut-off is given here; in the data, active means inhibition above about 35% (passing the limit was not always enough); inconclusive means no clear call, values can overlap the other calls.",
  "data": [
    {"tested_on": "Botulinum neurotoxin type F light chain protease (Clostridium botulinum)", "assay": "BoNT/F light chain protease inhibitors, primary screen, biochemical, flow cytometry, MLPCN library (AID 588497); further: plate controls were buffer without enzyme for full effect and enzyme alone for no effect", "conditions": "Multiplex microsphere protease cleavage assay, at 10 µM, hits give high values", "values": [
      {"smiles": "O=C(c1cc2ccccc2o1)N1CCN(c2ncccn2)CC1", "inhibition": "inactive: -1.3%"},
      {"smiles": "CSc1ccccc1NC(=O)C(C)N(C)CC(=O)N1CCN(Cc2ccccc2)CC1", "note": "(configuration not stated)", "inhibition": "inconclusive: -0.7%"},
      {"smiles": "COc1ccc(C(=O)N/N=C/c2ccc(SC)cc2)cc1", "inhibition": "inactive: -4.2%"},
      {"smiles": "Cc1ccc(-n2ncc(C#N)c2N)cc1", "inhibition": "inconclusive: 40.7%"},
      {"smiles": "O=C(CN1C(=O)c2ccccc2C1=O)Nc1ccccc1C(F)(F)F", "inhibition": "inconclusive: -4.4%"},
      {"smiles": "Cc1ccc(OCC(O)CN2CCOCC2)cc1", "note": "(configuration not stated)", "inhibition": "inconclusive: -1.3%"},
      {"smiles": "COc1ccc(C(=O)Nc2nnc(-c3ccccc3)s2)cc1", "inhibition": "inconclusive: -0.7%"},
      {"smiles": "CCOC(=O)c1cn[nH]c1N", "inhibition": "inconclusive: 31.8%"},
      {"smiles": "Cc1ccc(Nc2nc(-c3cccnc3)nc3ccccc23)cc1", "inhibition": "inconclusive: 32%"},
      {"smiles": "Cc1ccccc1NC(=O)C(=O)NNC(=O)COc1ccc2ccccc2c1", "inhibition": "inactive: -0.7%"},
      {"smiles": "COc1cc(C)c(C)cc1S(=O)(=O)NC1CC(C)(C)NC(C)(C)C1", "inhibition": "inconclusive: 7%"},
      {"smiles": "O=C(CSC1=NS(=O)(=O)c2cc(Cl)ccc2N1)Nc1ccccc1C(F)(F)F", "inhibition": "inconclusive: -4.6%"},
      {"smiles": "COc1cccc(N(CC(=O)N2CCCC2)S(C)(=O)=O)c1", "inhibition": "inconclusive: 8.1%"},
      {"smiles": "O=C1/C(=C\\c2ccc(C(F)(F)F)cc2)CSc2sccc21", "inhibition": "inconclusive: -8.9%"},
      {"smiles": "COc1ccccc1OCC(=O)N1CCCCCCC1", "inhibition": "inconclusive: 19.4%"},
      {"smiles": "Cc1ccc(NC(=O)Nc2cnccn2)c(C)c1", "inhibition": "inactive: 6.1%"},
      {"smiles": "CCN(CC)C(=O)COc1ccc(-c2nnc(Nc3ccc(OC)c(C(=O)NC)c3)c3ccccc23)cc1", "inhibition": "inconclusive: -36.7%"},
      {"smiles": "COc1ccc(NC(=O)CCc2nc3ccccc3[nH]2)cc1", "inhibition": "inactive: -2.8%"},
      {"smiles": "CCc1c(C)nc2ccc(Br)cc2c1Cl", "inhibition": "inconclusive: 15.5%"},
      {"smiles": "CCOP(=O)(OCC)C(C)(C)NC(=O)Nc1ccc(Cl)c(Cl)c1", "inhibition": "inconclusive: 35.9%"},
      {"smiles": "CCOc1ccc(C2/C(=C(\\O)c3cccc(OC)c3)C(=O)C(=O)N2c2ccccn2)cc1OC", "note": "(configuration not stated)", "inhibition": "inconclusive: -10.4%"},
      {"smiles": "COc1cc(NS(=O)(=O)c2ccc(NS(=O)(=O)c3ccc(C)cc3)cc2)nc(OC)n1", "inhibition": "inactive: -0.4%"},
      {"smiles": "CC1CN(CCOCCOc2ccccc2-c2ccccc2)CC(C)O1", "note": "(configuration not stated)", "inhibition": "inconclusive: 0.4%"},
      {"smiles": "CNC(=O)C[C@H]1C(=O)N(CCc2ccccc2)C[C@@H]1C", "inhibition": "inactive: 0.4%"},
      {"smiles": "CCS(=O)(=O)N1CCC(C(=O)Oc2ccc(C)c(C)c2)CC1", "inhibition": "inconclusive: -16.9%"},
      {"smiles": "Cc1cc(Cl)ccc1NNC(=O)c1cccs1", "inhibition": "inconclusive: 23.6%"},
      {"smiles": "Cn1c(O)c(/C=N/NC(=O)c2ccncc2)c(=O)n(C)c1=S", "inhibition": "inconclusive: -24.6%"}
    ]}
  ]
}
